The text below walks through data of the supplement of paper PMC6411743.

The chains behind the UniProt entries cited, without tags or fusion partners. Where a name states a change or a piece, a line headed by the entry shows the natural chain unless it says otherwise.
UniProt P39210: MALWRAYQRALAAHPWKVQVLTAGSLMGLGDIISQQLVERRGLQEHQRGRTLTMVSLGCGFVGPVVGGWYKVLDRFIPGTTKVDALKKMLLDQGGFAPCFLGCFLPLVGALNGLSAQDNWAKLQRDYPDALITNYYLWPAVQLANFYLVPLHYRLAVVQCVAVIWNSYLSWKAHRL
UniProt Q01844: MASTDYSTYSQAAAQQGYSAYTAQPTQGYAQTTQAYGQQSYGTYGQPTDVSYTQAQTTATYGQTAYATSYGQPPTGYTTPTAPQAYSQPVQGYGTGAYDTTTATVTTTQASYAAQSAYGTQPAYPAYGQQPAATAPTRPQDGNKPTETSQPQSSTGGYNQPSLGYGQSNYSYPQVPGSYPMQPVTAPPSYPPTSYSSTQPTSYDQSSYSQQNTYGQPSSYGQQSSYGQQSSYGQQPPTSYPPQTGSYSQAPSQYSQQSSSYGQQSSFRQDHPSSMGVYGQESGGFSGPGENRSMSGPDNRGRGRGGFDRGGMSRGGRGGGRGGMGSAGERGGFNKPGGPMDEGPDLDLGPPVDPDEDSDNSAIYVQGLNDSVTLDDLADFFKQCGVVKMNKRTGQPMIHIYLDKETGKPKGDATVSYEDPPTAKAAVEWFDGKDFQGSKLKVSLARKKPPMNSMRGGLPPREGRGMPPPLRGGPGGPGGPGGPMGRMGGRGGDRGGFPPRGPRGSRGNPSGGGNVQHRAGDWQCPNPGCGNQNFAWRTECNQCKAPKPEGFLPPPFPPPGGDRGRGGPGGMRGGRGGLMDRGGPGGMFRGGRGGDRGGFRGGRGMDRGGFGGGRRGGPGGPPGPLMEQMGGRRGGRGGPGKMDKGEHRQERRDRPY
UniProt P68366, whole entry: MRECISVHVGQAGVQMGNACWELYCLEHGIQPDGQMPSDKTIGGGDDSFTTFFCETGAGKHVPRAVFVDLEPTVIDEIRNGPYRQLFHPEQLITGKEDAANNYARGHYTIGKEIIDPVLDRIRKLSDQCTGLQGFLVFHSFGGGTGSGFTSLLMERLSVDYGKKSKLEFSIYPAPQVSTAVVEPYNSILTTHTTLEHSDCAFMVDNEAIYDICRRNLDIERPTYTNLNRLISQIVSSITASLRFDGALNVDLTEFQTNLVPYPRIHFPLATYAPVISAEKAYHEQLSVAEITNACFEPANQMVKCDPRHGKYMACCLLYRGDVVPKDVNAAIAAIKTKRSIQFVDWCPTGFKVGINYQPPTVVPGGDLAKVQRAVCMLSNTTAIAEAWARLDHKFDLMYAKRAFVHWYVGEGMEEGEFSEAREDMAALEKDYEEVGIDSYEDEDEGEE
UniProt P61086: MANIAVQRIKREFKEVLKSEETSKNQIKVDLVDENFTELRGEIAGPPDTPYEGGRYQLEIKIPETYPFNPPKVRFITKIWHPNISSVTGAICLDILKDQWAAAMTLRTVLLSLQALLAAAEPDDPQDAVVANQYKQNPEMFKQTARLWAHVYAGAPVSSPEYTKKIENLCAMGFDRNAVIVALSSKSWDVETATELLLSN
UniProt Q99439: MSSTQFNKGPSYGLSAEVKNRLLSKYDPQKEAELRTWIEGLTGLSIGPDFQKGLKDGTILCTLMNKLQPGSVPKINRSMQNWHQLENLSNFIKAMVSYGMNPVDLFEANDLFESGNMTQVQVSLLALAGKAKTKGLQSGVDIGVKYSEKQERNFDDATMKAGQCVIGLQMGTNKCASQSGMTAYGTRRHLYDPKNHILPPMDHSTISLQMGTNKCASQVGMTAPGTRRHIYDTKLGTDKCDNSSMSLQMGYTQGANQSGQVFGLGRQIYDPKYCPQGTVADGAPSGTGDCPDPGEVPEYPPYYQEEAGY
UniProt Q8IXT5: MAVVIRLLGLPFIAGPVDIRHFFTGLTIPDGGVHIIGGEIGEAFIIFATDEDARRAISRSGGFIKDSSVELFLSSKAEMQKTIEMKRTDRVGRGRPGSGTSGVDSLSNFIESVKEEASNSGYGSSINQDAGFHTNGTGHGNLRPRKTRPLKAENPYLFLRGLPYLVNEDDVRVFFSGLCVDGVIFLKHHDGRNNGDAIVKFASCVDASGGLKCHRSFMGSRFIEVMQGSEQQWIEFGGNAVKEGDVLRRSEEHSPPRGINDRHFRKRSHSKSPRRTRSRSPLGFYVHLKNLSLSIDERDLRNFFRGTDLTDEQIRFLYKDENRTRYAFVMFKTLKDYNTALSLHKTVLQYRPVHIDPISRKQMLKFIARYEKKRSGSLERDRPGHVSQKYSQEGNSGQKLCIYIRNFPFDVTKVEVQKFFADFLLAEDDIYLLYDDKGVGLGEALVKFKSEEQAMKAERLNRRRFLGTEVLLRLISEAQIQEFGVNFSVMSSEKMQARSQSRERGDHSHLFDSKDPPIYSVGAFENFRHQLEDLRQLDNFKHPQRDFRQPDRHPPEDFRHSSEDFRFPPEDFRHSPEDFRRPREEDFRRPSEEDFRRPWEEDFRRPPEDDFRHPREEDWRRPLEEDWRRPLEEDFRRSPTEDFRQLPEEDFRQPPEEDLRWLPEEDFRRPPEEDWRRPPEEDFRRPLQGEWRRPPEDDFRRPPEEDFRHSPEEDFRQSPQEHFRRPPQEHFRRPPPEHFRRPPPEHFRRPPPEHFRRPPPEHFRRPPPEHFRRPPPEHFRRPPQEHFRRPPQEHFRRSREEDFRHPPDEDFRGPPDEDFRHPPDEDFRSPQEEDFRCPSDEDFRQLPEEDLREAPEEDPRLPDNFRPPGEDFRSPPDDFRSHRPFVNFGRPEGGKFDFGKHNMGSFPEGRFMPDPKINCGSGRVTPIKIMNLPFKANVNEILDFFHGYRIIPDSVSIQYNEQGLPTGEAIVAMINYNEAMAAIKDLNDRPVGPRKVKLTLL
UniProt Q5W0Z9: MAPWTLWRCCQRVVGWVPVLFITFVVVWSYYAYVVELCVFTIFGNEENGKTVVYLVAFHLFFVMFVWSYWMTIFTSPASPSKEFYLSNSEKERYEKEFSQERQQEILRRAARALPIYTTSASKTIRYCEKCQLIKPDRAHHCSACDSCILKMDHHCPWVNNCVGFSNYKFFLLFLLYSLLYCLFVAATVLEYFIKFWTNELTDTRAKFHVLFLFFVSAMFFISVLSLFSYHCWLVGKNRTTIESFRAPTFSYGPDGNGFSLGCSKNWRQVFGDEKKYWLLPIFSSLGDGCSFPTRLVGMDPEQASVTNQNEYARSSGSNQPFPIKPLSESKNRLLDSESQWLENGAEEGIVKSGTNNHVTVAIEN
UniProt Q9UH03, whole entry: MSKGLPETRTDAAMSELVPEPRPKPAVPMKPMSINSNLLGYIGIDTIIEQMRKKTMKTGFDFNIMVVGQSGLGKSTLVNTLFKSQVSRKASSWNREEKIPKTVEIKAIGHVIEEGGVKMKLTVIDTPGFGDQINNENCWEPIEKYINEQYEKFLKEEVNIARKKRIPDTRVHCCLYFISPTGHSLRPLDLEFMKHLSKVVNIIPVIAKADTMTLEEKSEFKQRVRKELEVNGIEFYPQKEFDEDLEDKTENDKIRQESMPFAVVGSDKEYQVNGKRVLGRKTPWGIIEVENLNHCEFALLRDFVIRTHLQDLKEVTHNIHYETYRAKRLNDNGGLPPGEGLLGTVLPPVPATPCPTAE
UniProt O15162: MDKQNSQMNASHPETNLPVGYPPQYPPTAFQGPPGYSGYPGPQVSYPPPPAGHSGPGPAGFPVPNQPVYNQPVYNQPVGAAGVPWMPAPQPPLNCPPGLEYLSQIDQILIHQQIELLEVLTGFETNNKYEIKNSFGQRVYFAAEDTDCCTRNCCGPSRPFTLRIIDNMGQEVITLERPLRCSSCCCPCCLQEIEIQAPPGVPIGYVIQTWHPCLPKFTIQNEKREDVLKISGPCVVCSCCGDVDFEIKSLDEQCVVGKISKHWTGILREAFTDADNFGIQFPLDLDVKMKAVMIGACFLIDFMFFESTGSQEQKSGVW
UniProt Q13098: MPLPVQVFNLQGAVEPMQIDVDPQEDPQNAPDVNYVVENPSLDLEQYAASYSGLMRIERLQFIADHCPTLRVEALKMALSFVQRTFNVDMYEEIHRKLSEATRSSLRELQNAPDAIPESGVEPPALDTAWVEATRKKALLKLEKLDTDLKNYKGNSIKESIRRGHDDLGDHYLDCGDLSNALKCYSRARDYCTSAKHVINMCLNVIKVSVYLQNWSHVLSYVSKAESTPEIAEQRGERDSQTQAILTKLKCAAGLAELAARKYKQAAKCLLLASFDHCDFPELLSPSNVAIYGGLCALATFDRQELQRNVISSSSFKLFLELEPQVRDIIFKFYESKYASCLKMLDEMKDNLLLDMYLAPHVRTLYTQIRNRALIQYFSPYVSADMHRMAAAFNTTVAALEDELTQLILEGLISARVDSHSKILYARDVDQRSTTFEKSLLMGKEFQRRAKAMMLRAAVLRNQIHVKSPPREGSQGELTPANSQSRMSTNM
UniProt Q8N4C6: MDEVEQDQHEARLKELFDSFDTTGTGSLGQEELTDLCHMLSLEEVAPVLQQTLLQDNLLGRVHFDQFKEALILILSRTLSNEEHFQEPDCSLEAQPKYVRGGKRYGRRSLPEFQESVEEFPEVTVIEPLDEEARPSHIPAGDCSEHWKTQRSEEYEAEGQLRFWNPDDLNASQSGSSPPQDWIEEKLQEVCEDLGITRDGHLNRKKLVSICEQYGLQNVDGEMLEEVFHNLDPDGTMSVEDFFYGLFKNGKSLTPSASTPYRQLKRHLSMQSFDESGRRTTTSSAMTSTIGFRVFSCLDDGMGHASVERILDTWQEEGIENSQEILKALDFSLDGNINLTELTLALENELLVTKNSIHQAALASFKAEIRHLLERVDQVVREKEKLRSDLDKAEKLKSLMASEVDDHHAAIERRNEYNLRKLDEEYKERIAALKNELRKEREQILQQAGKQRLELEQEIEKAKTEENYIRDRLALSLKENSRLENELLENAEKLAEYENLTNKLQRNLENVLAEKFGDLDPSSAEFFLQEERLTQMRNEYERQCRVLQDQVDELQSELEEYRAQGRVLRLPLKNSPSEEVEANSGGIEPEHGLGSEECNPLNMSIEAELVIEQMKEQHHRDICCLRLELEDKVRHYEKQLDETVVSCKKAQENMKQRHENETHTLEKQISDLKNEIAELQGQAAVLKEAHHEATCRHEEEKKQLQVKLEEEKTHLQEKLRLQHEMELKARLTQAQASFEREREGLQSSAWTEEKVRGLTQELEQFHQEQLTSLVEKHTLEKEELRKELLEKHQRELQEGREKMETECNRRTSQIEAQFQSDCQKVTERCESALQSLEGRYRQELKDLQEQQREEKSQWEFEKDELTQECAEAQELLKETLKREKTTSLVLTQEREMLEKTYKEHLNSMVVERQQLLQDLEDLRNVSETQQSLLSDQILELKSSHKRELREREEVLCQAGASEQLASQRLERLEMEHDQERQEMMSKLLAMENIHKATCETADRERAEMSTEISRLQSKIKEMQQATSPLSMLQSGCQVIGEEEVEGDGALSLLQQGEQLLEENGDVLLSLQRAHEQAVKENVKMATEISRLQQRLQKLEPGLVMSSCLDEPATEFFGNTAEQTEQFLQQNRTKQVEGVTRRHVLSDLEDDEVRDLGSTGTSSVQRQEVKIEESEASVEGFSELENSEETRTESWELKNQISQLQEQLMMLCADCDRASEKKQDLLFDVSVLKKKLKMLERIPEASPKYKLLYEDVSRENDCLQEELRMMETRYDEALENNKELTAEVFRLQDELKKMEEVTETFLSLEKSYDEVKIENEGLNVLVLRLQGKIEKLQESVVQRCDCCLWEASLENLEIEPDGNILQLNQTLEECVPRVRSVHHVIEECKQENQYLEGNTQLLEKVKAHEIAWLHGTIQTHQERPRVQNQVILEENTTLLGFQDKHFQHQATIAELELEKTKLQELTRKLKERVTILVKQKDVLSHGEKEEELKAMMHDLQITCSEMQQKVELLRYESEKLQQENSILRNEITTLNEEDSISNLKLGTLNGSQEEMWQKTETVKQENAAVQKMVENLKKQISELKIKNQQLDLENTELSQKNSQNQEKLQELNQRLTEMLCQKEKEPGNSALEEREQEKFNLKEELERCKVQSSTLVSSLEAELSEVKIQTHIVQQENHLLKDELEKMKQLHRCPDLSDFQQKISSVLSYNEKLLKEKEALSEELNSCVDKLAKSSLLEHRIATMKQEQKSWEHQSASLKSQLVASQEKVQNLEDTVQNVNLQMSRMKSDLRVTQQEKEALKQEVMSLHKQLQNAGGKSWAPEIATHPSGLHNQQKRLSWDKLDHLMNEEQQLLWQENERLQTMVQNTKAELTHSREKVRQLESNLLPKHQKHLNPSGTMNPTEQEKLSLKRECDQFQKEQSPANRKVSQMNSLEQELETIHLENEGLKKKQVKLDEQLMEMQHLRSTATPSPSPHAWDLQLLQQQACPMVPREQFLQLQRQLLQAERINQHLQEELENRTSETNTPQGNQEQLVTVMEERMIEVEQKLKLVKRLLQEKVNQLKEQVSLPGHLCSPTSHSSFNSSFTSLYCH

± gives the standard deviation of the averaged measurements. This is one part of the list.

Compound in the experiment: Nc1nc2c(ncn2[C@@H]2O[C@H](COP(=O)(O)OP(=O)(O)OP(=O)(O)O)[C@@H](O)[C@H]2O)c(=O)[nH]1 [guanosine triphosphate]
The experiment can be described thus: NP40-soluble protein abundance relative to vehicle (solubility fold change) (ratio); higher = more soluble protein in presence of GTP. The method, boiled down:
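Each value is a fold change relative to the detergent-processed vehicle, calculated per replicate from vsn-normalised intensities. Jurkat crude lysate received eight concentrations (0.1 to 10 mM) for 10 min at room temperature and 3 min at 37 °C, then was solubilised in 0.8% NP40 with benzonase (60 min, 4 °C). The ultracentrifuged supernatant was TMT-labelled and run by LC-MS/MS in three independent experiments.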

Consider C9J473 (UniProt P39210), for which the NP40-soluble protein abundance amounted to 1.1 ± 0.2 (concentration: 0.1mM); 1.03 ± 0.16 (concentration: 0.5mM); 0.929 ± 0.16 (concentration: 1mM); 0.928 ± 0.25 (concentration: 2mM); 0.983 ± 0.16 (concentration: 4mM); 0.903 ± 0.23 (concentration: 6mM). In addition, the NP40-soluble protein abundance is, setting by setting: (concentration: 8mM) 0.875 ± 0.17; (concentration: 10mM) 0.873 ± 0.26.

For the target “B0QYK0 and related entries (UniProt Q01844)”, the NP40-soluble protein abundance by setting is: (concentration: 0.1mM) 0.905 ± 0.05; (concentration: 0.5mM) 0.928 ± 0.038; (concentration: 1mM) 0.967 ± 0.022; (concentration: 2mM) 0.937 ± 0.075; (concentration: 4mM) 0.905 ± 0.049; (concentration: 6mM) 0.969 ± 0.083. Moreover, the NP40-soluble protein abundance (concentration: 8mM) is 0.987 ± 0.034 and the NP40-soluble protein abundance (concentration: 10mM) is 0.979 ± 0.056.

For “C9JJQ8 and related entries (UniProt P68366)”, the NP40-soluble protein abundance (concentration: 0.1mM) came to 1.11 ± 0.033; the NP40-soluble protein abundance (concentration: 0.5mM) worked out at 0.96 ± 0.058; the NP40-soluble protein abundance (concentration: 1mM) came to 1.05 ± 0.059; the NP40-soluble protein abundance (concentration: 2mM) worked out at 0.984 ± 0.05; the NP40-soluble protein abundance (concentration: 4mM) stood at 1.09 ± 0.026; the NP40-soluble protein abundance (concentration: 6mM) stood at 1.02 ± 0.02. In addition, the NP40-soluble protein abundance runs as follows: (concentration: 8mM) 1.02 ± 0.032; (concentration: 10mM) 0.992 ± 0.047.

Turning to “D6RDM7 and related entries (UniProt P61086)”, the NP40-soluble protein abundance worked out at 1.01 ± 0.06 (concentration: 0.1mM); 0.986 ± 0.064 (concentration: 0.5mM); 0.915 ± 0.05 (concentration: 1mM); 0.912 ± 0.034 (concentration: 2mM); 0.902 ± 0.041 (concentration: 4mM); 0.899 ± 0.044 (concentration: 6mM). The NP40-soluble protein abundance reads like this: (concentration: 8mM) 0.855 ± 0.054; (concentration: 10mM) 0.854 ± 0.023.

With “B4DDF4 and related entries (UniProt Q99439)”, the NP40-soluble protein abundance runs as follows: (concentration: 0.1mM) 0.872 ± 0.046; (concentration: 0.5mM) 0.895 ± 0.059; (concentration: 1mM) 0.901 ± 0.059; (concentration: 2mM) 0.883 ± 0.098; (concentration: 4mM) 0.843 ± 0.099; (concentration: 6mM) 0.885 ± 0.096. The NP40-soluble protein abundance (concentration: 8mM) worked out at 0.855 ± 0.067 and the NP40-soluble protein abundance (concentration: 10mM) turned out to be 0.905 ± 0.076.

Consider “B9ZVT1 and related entries (UniProt Q8IXT5)”, for which the NP40-soluble protein abundance is, setting by setting: (concentration: 0.1mM) 1.02 ± 0.081; (concentration: 0.5mM) 1.13 ± 0.19; (concentration: 1mM) 1.21 ± 0.078; (concentration: 2mM) 1.28 ± 0.25; (concentration: 4mM) 1.29 ± 0.29; (concentration: 6mM) 1.3 ± 0.32. Also, the NP40-soluble protein abundance runs as follows: (concentration: 8mM) 1.45 ± 0.47; (concentration: 10mM) 1.48 ± 0.39.

For “B4DRN8 and related entries (UniProt Q5W0Z9)”, the NP40-soluble protein abundance is, setting by setting: (concentration: 0.1mM) 1.11 ± 0.036; (concentration: 0.5mM) 1.05 ± 0.11; (concentration: 1mM) 1.29 ± 0.056; (concentration: 2mM) 1.21 ± 0.084; (concentration: 4mM) 1.17 ± 0.1; (concentration: 6mM) 1.19 ± 0.085. In addition, the NP40-soluble protein abundance is, setting by setting: (concentration: 8mM) 1.28 ± 0.12; (concentration: 10mM) 1.29 ± 0.11.

In the case of “B1AHR1 and related entries (UniProt Q9UH03)”, the NP40-soluble protein abundance runs as follows: (concentration: 0.1mM) 1.04 ± 0.061; (concentration: 0.5mM) 1.061 ± 0.002; (concentration: 1mM) 1.03 ± 0.053; (concentration: 2mM) 1.02 ± 0.08; (concentration: 4mM) 1.11 ± 0.16; (concentration: 6mM) 1.06 ± 0.16. In addition, the NP40-soluble protein abundance is, setting by setting: (concentration: 8mM) 1.09 ± 0.17; (concentration: 10mM) 1.03 ± 0.18.

For “C9J7K9 and related entries (UniProt O15162)”, the NP40-soluble protein abundance (concentration: 0.1mM) worked out at 1.04 ± 0.056; the NP40-soluble protein abundance (concentration: 0.5mM) is 0.996 ± 0.018; the NP40-soluble protein abundance (concentration: 1mM) stood at 0.913 ± 0.029; the NP40-soluble protein abundance (concentration: 2mM) stood at 0.879 ± 0.035; the NP40-soluble protein abundance (concentration: 4mM) is 0.895 ± 0.083; the NP40-soluble protein abundance (concentration: 6mM) came out at 0.923 ± 0.094. In addition, the NP40-soluble protein abundance amounted to 0.8475 ± 0.0078 (concentration: 8mM) and 0.867 ± 0.18 (concentration: 10mM).

Consider “C9JFE4 and related entries (UniProt Q13098)”, for which the NP40-soluble protein abundance runs as follows: (concentration: 0.1mM) 0.973 ± 0.058; (concentration: 0.5mM) 0.974 ± 0.054; (concentration: 1mM) 0.988 ± 0.075; (concentration: 2mM) 1.03 ± 0.095; (concentration: 4mM) 1.03 ± 0.089; (concentration: 6mM) 1.02 ± 0.088. The NP40-soluble protein abundance was 0.94 ± 0.064 (concentration: 8mM) and 1 ± 0.06 (concentration: 10mM).

With “C9J066 and related entries (UniProt Q8N4C6)”, the NP40-soluble protein abundance runs as follows: (concentration: 0.1mM) 1.06 ± 0.053; (concentration: 0.5mM) 0.986 ± 0.032; (concentration: 1mM) 1.04 ± 0.028; (concentration: 2mM) 1.02 ± 0.044; (concentration: 4mM) 1.022 ± 0.01; (concentration: 6mM) 1.12 ± 0.087. In addition, the NP40-soluble protein abundance is 1.03 ± 0.19 (concentration: 8mM) and 1.11 ± 0.18 (concentration: 10mM).

For “C9J185 and related entries (UniProt Q9NZJ5)”, the NP40-soluble protein abundance runs as follows: (concentration: 0.1mM) 1.03 ± 0.067; (concentration: 0.5mM) 1.03 ± 0.025; (concentration: 1mM) 1.05 ± 0.079; (concentration: 2mM) 1.08 ± 0.086; (concentration: 4mM) 1.07 ± 0.042; (concentration: 6mM) 1.12 ± 0.03. Also, the NP40-soluble protein abundance (concentration: 8mM) amounted to 1.07 ± 0.077 and the NP40-soluble protein abundance (concentration: 10mM) stood at 1.17 ± 0.028.

Turning to “D3YTB1 and related entries (UniProt P62910)”, the NP40-soluble protein abundance reads like this: (concentration: 0.1mM) 1 ± 0.12; (concentration: 0.5mM) 0.991 ± 0.075; (concentration: 1mM) 1.11 ± 0.16; (concentration: 2mM) 1.05 ± 0.18; (concentration: 4mM) 0.949 ± 0.3; (concentration: 6mM) 0.88 ± 0.2. Besides, the NP40-soluble protein abundance (concentration: 8mM) is 0.633 ± 0.19 and the NP40-soluble protein abundance (concentration: 10mM) was 0.915 ± 0.25.
